According to doi:10.1101/2023.08.23.554465:
Results are given in words; binding and its absence hold for the method and conditions named. Binding seen in cells or lysates may run through a third protein. Here binding means that the protein was enriched with, or labelled near, the bait; the list need not be complete.

The chains behind the UniProt entries cited, without tags or fusion partners.
UniProt P46938: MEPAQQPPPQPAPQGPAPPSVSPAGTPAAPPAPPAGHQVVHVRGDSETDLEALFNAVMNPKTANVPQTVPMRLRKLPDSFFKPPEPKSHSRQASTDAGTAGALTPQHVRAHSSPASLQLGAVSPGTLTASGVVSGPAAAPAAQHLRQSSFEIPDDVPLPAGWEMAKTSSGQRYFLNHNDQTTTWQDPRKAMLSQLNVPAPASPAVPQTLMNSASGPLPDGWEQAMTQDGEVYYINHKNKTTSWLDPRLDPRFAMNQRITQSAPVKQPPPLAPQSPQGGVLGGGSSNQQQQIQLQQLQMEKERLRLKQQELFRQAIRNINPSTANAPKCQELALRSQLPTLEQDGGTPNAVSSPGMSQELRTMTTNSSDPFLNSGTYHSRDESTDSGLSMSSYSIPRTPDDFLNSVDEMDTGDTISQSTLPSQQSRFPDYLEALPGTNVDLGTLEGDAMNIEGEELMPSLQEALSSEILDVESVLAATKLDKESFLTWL
UniProt Q9WUD1: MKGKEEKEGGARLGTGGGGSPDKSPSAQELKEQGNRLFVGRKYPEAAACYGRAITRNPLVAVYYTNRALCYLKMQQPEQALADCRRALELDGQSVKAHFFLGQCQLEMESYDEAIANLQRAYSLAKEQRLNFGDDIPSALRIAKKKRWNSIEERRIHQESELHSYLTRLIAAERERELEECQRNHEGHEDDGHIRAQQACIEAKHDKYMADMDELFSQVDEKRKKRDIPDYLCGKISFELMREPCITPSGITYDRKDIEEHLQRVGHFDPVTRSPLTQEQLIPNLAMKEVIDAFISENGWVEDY

Target: Yes-Associated Protein (YAP) (mouse (endogenous in EpH4)) (UniProt P46938)
Test: affinity purification with mass spectrometry

Row | Molecule | binding
1 | Stub1 (from UniProt Q9WUD1 1-304) | binds
2 | Ube2c (protein, UniProt Q9D1C1 1-179) MASQNRDPAAASVAAVRKGAEPCGGAARGPVGKRLQQELMILMTSGDKGISAFPESDNLFKWVGTIHGAAGTVYEDLRYKLSLEFPSGYPYNAPTVKFLTPCYHPNVDTQGNICLDILKDKWSALYDVRTILLSIQSLLGEPNIDSPLNTHAAELWKNPTAFKKYLQETYSKQVSSQDP | binds
